Here are results for one variant from article PMC10018360 (2023).

B1: SFB-tagged human HDGFRP3 (wild type) [human] / 53BP1, endogenous [human (endogenous in HEK293T, U2OS, MCF10A)] (parent complex)
chain 1: MARPRPREYKAGDLVFAKMKGYPHWPARIDELPEGAVKPPANKYPIFFFGTHETAFLGPKDLFPYKEYKDKFGKSNKRKGFNEGLWEIENNPGVKFTGYQAIQQQSSSETEGEGGNTADASSEEEGDRVEEDGKGKRKNEKAGSKRKKSYTSKKSSKQSRKSPGDEDDKDCKEEENKSSSEGGDAGNDTRNTTSDLQKTSEGT
chain 2: MDPTGSQLDSDFSQQDTPCLIIEDSQPESQVLEDDSGSHFSMLSRHLPNLQTHKENPVLDVVSNPEQTAGEERGDGNSGFNEHLKENKVADPVDSSNLDTCGSISQVIEQLPQPNRTSSVLGMSVESAPAVEEEKGEELEQKEKEKEEDTSGNTTHSLGAEDTASSQLGFGVLELSQSQDVEENTVPYEVDKEQLQSVTTNSGYTRLSDVDANTAIKHEEQSNEDIPIAEQSSKDIPVTAQPSKDVHVVKEQNPPPARSEDMPFSPKASVAAMEAKEQLSAQELMESGLQIQKSPEPEVLSTQEDLFDQSNKTVSSDGCSTPSREEGGCSLASTPATTLHLLQLSGQRSLVQDSLSTNSSDLVAPSPDAFRSTPFIVPSSPTEQEGRQDKPMDTSVLSEEGGEPFQKKLQSGEPVELENPPLLPESTVSPQASTPISQSTPVFPPGSLPIPSQPQFSHDIFIPSPSLEEQSNDGKKDGDMHSSSLTVECSKTSEIEPKNSPEDLGLSLTGDSCKLMLSTSEYSQSPKMESLSSHRIDEDGENTQIEDTEPMSPVLNSKFVPAENDSILMNPAQDGEVQLSQNDDKTKGDDTDTRDDISILATGCKGREETVAEDVCIDLTCDSGSQAVPSPATRSEALSSVLDQEEAMEIKEHHPEEGSSGSEVEEIPETPCESQGEELKEENMESVPLHLSLTETQSQGLCLQKEMPKKECSEAMEVETSVISIDSPQKLAILDQELEHKEQEAWEEATSEDSSVVIVDVKEPSPRVDVSCEPLEGVEKCSDSQSWEDIAPEIEPCAENRLDTKEEKSVEYEGDLKSGTAETEPVEQDSSQPSLPLVRADDPLRLDQELQQPQTQEKTSNSLTEDSKMANAKQLSSDAEAQKLGKPSAHASQSFCESSSETPFHFTLPKEGDIIPPLTGATPPLIGHLKLEPKRHSTPIGISNYPESTIATSDVMSESMVETHDPILGSGKGDSGAAPDVDDKLCLRMKLVSPETEASEESLQFNLEKPATGERKNGSTAVAESVASPQKTMSVLSCICEARQENEARSEDPPTTPIRGNLLHFPSSQGEEEKEKLEGDHTIRQSQQPMKPISPVKDPVSPASQKMVIQGPSSPQGEAMVTDVLEDQKEGRSTNKENPSKALIERPSQNNIGIQTMECSLRVPETVSAATQTIKNVCEQGTSTVDQNFGKQDATVQTERGSGEKPVSAPGDDTESLHSQGEEEFDMPQPPHGHVLHRHMRTIREVRTLVTRVITDVYYVDGTEVERKVTEETEEPIVECQECETEVSPSQTGGSSGDLGDISSFSSKASSLHRTSSGTSLSAMHSSGSSGKGAGPLRGKTSGTEPADFALPSSRGGPGKLSPRKGVSQTGTPVCEEDGDAGLGIRQGGKAPVTPRGRGRRGRPPSRTTGTRETAVPGPLGIEDISPNLSPDDKSFSRVVPRVPDSTRRTDVGAGALRRSDSPEIPFQAAAGPSDGLDASSPGNSFVGLRVVAKWSSNGYFYSGKITRDVGAGKYKLLFDDGYECDVLGKDILLCDPIPLDTEVTALSEDEYFSAGVVKGHRKESGELYYSIEKEGQRKWYKRMAVILSLEQGNRLREQYGLGPYEAVTPLTKAADISLDNLVEGKRKRRSNVSSPATPTASSSSSTTPTRKITESPRASMGVLSGKRKLITSEEERSPAKRGRKSATVKPGAVGAGEFVSPCESGDNTGEPSALEEQRGPLPLNKTLFLGYAFLLTMATTSDKLASRSKLPDGPTGSSEEEEEFLEIPPFNKQYTESQLRAGAGYILEDFNEAQCNTAYQCLLIADQHCRTRKYFLCLASGIPCVSHVWVHDSCHANQLQNYRNYLLPAGYSLEEQRILDWQPRENPFQNLKVLLVSDQQQNFLELWSEILMTGGAASVKQHHSSAHNKDIALGVFDVVVTDPSCPASVLKCAEALQLPVVSQEWVIQCLIVGERIGFKQHPKYKHDYVSH

Variants of B1 are the subject of the test. As to the kind of experiment: proximity ligation assay (PLA); U2OS cells; 100 cells per experiment, n = 3; parent: 33; read off a plot.
Consider chain 1 Y22A, chain 1 W25A, for which the response is roughly 5 dots/Nucleus.
